Laboratory results as given in the supplement of paper PMC10849652.
This is one part of the list. Residues, ends and D or L forms follow the SMILES beside them. *: point of attachment. Cbz = O=C(OCc1ccccc1)*

The chains behind the UniProt entries cited, without tags or fusion partners. Where a name states a change or a piece, a line headed by the entry shows the natural chain unless it says otherwise.
UniProt Q9UPW0: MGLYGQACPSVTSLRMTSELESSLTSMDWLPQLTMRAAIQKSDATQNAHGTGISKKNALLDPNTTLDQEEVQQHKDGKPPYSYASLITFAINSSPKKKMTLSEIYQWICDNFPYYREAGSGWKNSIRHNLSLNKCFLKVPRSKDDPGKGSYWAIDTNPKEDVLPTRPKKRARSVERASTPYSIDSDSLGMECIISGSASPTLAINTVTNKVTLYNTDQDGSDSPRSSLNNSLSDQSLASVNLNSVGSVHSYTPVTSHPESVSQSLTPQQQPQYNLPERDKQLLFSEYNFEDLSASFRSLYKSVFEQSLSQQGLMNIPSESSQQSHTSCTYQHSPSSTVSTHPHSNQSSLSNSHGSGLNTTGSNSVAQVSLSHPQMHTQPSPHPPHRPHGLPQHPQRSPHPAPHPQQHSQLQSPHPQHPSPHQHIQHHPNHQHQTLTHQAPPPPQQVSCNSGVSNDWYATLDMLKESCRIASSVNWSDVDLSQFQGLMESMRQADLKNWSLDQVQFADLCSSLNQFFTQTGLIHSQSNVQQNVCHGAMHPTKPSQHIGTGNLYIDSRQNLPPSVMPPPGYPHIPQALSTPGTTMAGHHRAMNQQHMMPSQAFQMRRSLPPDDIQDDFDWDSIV
UniProt Q96RP9: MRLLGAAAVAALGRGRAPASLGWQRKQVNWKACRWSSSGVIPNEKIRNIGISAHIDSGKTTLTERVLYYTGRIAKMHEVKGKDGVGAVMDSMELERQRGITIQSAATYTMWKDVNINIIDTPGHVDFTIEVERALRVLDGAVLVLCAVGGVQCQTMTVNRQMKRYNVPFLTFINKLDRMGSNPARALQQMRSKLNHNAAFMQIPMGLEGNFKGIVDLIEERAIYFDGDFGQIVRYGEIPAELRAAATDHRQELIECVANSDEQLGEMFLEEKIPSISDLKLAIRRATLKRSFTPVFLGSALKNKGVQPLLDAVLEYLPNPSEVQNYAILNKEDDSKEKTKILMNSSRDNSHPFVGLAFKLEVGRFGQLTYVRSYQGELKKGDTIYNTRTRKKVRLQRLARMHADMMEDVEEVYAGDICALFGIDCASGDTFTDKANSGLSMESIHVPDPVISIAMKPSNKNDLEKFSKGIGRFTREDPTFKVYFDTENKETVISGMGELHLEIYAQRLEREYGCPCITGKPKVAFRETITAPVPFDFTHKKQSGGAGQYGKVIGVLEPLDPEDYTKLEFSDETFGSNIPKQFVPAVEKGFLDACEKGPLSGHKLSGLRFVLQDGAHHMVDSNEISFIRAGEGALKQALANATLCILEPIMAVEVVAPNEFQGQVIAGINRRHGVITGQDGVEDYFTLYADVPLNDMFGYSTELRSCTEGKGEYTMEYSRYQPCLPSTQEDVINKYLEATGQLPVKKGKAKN
UniProt Q8TB36: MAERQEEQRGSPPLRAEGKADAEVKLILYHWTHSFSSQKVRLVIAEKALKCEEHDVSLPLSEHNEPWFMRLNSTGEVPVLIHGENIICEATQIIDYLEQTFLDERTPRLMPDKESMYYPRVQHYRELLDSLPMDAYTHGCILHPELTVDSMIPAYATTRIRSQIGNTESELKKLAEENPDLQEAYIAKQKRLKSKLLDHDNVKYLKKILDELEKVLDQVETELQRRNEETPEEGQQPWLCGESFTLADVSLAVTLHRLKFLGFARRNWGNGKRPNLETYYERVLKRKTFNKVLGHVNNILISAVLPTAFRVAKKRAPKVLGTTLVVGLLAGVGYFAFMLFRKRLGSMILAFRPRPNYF
UniProt Q8NCL4: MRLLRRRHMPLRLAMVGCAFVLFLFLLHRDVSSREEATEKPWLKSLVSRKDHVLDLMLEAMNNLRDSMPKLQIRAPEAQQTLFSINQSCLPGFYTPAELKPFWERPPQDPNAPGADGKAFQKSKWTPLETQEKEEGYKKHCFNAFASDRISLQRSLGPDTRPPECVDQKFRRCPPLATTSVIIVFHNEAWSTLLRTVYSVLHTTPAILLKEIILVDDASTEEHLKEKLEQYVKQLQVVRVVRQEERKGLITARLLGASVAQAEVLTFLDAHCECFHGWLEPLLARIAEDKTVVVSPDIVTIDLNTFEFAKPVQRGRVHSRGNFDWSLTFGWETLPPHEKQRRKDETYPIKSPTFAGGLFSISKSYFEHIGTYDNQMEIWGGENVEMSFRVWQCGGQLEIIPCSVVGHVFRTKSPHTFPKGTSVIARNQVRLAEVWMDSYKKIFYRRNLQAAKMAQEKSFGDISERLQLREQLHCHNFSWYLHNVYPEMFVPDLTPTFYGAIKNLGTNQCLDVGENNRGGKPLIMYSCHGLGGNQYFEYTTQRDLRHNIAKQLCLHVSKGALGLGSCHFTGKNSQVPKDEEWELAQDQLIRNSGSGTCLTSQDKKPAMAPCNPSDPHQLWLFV
UniProt Q9NY12: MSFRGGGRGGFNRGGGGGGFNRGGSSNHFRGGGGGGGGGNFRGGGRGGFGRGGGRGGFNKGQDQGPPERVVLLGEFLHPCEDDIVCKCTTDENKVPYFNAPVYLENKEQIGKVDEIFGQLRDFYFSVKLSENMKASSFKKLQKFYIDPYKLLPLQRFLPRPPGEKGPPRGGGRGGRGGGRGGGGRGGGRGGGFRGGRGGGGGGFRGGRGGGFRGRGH
UniProt Q86SF2: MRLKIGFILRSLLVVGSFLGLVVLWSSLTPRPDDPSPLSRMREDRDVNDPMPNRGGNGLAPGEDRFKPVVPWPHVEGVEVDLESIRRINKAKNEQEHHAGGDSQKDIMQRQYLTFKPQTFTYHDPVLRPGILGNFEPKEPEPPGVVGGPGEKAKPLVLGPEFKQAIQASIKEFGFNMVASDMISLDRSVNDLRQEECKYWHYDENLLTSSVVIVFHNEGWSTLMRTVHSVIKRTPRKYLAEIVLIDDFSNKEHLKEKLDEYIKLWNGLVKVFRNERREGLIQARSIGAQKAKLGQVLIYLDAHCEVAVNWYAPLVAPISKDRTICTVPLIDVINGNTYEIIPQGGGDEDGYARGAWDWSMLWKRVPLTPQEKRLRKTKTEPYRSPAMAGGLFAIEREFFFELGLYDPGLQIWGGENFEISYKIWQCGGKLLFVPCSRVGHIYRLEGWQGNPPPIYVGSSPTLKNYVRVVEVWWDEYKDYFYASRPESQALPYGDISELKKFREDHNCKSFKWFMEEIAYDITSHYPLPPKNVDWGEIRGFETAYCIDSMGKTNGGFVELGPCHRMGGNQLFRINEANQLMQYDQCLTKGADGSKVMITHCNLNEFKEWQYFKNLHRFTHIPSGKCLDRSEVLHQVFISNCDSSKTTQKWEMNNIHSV
UniProt O95749: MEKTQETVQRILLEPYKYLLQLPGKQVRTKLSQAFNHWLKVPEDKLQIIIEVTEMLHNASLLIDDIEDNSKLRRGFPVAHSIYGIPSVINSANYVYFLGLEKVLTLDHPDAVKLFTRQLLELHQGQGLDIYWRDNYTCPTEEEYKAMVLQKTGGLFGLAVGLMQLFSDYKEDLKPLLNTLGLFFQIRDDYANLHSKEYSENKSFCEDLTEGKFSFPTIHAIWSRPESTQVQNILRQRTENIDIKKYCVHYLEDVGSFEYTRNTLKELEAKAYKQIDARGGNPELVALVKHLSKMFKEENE
UniProt Q13480: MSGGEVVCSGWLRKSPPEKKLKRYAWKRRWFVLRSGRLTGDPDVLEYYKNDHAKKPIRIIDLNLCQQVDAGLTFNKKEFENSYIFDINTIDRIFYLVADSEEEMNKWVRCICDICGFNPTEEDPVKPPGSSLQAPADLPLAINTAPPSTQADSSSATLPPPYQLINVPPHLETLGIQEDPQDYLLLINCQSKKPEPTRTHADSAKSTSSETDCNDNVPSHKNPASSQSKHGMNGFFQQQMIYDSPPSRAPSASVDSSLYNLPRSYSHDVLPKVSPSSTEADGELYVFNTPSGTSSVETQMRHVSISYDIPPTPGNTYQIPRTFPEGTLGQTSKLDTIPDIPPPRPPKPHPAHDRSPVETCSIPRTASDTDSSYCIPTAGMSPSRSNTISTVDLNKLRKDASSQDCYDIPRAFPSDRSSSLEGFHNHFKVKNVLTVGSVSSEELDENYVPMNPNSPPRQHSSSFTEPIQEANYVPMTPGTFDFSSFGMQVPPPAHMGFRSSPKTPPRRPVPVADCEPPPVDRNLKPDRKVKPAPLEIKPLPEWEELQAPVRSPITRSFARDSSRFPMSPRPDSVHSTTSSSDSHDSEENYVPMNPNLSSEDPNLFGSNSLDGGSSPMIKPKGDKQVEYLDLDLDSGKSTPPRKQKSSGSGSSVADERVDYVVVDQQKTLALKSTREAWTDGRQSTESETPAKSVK
UniProt P36268: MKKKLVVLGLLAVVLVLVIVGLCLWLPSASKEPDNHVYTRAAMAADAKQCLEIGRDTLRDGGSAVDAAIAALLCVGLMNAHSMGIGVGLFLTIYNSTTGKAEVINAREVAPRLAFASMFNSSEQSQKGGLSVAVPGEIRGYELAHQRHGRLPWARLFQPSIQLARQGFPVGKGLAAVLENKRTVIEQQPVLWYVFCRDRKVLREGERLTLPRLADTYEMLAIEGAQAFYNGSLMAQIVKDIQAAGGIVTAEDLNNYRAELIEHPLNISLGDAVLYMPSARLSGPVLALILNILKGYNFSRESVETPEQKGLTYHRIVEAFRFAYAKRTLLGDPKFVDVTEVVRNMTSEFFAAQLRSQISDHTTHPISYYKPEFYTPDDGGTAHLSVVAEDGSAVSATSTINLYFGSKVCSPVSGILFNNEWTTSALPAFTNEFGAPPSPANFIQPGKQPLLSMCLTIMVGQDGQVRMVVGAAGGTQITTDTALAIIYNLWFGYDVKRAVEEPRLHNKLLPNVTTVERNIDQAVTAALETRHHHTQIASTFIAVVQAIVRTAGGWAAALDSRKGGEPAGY
UniProt Q14376: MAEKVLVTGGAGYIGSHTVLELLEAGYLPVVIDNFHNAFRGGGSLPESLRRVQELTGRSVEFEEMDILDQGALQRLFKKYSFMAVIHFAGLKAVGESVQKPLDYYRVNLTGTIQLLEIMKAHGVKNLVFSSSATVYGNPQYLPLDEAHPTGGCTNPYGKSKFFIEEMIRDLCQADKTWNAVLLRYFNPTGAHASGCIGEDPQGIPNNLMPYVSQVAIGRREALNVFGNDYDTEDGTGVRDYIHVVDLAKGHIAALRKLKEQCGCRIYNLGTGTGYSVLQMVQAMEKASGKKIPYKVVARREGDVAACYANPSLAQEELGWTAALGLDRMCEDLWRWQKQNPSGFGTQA
UniProt Q6ZNA5: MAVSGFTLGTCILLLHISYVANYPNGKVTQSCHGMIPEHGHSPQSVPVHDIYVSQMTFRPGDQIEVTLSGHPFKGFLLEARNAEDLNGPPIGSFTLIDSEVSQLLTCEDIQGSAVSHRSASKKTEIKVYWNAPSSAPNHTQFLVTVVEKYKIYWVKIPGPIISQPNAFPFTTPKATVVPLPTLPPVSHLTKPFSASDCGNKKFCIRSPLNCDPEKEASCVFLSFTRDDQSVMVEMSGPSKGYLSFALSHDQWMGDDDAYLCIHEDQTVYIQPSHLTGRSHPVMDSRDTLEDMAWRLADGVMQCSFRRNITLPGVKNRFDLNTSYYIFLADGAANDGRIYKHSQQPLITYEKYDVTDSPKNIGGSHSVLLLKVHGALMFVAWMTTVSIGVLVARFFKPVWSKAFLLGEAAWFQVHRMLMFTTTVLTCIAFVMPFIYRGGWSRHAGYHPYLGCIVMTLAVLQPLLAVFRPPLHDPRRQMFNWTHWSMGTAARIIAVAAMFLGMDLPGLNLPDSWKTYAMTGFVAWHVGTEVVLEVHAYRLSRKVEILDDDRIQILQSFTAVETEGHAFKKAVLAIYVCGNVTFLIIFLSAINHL
UniProt Q9BWH2: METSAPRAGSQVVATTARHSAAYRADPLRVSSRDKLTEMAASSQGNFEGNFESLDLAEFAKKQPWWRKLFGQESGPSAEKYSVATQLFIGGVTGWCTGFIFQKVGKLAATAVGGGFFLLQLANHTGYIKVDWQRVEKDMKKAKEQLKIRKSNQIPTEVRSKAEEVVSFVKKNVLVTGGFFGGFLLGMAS

Legend:
Test in all cases: log2 fold change, soluble protein after heating vs DMSO (PISA); higher = thermal stabilisation; K562 cells, 10 uM, 30 min; active = over 0.2 and 3.5 SD of the protein, either way, in both replicates (recomputed)
[1] = compound: C#Cc1cccc(Nc2ncnc3cc(OCCOC)c(OCCOC)cc23)c1 [erlotinib]
Outline: (§1)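 Soluble protein was quantified by TMTpro 16plex LC-MS/MS after channel sums were equalised. It was obtained as the supernatant after 21,000xg for 90 min from pooled aliquots of K562 cells (2×10^6 cells/mL, 10 μM compound, 30 min) heated for 3 min across 48°C-58°C and extracted in PBS with 0.5% NP-40 at 4°C. Thermal stability values are relative to control samples and come from duplicates. They are given as log2 fold changes.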

[2] = compound: C/C(=N\NC(=O)C1=CC(=CC=C1)S(=O)(=O)N2CCOCC2)/C3=C(C=CC(=C3)Cl)O
Outline: as §1

[3] = compound: C1=CC(=C(C=C1Cl)C2=NC3=NC=CN=C3C(=N2)NC4=CC=NC=C4)F
Outline: as §1

[4] = compound: C1=CC(=CC=C1C2=NC3=C(N2)C=C(C=C3)C(=O)N)OC4=CC=C(C=C4)Cl
Outline: as §1

[5] = compound: C1=CC2=C(C=CC(=C2)/C=C\3/C(=O)NC(=NCC4=CC=CS4)S3)N=C1
Outline: as §1

[6] = compound: C1=CC2=NC=CN=C2C=C1/C=C/3\C(=O)NC(=O)S3
Outline: as §1

[7] = compound: C1=CC=C(C=C1)C2=NC(=C(N2)C3=CC=NC=C3)C4=CC(=C(C=C4)Cl)O
Outline: as §1

[8] = compound: C1=CC=C2C(=C1)C3=NNC4=CC=CC(=C43)C2=O
Outline: as §1

[9] = compound: C1CCN(C1)C(=O)NC2=CC=CC(=C2)NC3=NC=C(C(=N3)NCCC4=CN=CN4)Br
Outline: as §1

[10] = compound: C1CN(CCC1(CC2=CC=C(C=C2)Cl)N)C3=NC=NC4=C3C=CN4
Outline: as §1

[11] = compound: C1COCCN1CCN2C3=CC=CC=C3N=C2NC(=O)C4=CC(=CC=C4)[N+](=O)[O-] [IRAK-1-4 Inhibitor I]
Outline: as §1

[12] = compound: C=CC(=O)N1CCC[C@@H](n2nc(-c3ccc(Oc4ccccc4)cc3)c3c(N)ncnc32)C1 [ibrutinib]
Outline: as §1

[13] = compound: CC(=O)c1cnc2ccc(-c3cc(Cl)c(O)c(Cl)c3)nc2c1N[C@H]1CC[C@H](CN(C)C)CC1
Outline: as §1

[14] = compound: CC(C)(C)Cn1c(N)nc2ccc(-c3[nH]c(C(C)(C)C)nc3-c3ccc(F)cc3)nc21 [ralimetinib]
Outline: as §1

[15] = compound: CC(C)(O)CC(=O)NCCn1ccc2ncnc(Nc3ccc(Oc4cccc(C(F)(F)F)c4)c(Cl)c3)c21
Outline: as §1

[16] = compound: CC(C)C1=C2N=C(C=C(N2N=C1)NCC3=CC=CC=C3)NCCCCCCN
Outline: as §1

[17] = compound: CC(C)C[C@@H](C=O)NC(=O)[C@H](CC(C)C)NC(=O)[C@H](CC(C)C)NC(=O)OCc1ccccc1
Outline: as §1

[18] = compound: CC(C)N(C[C@H]1O[C@@H](n2cnc3c(N)ncnc32)[C@H](O)[C@@H]1O)[C@H]1C[C@@H](CCc2nc3cc(C(C)(C)C)ccc3[nH]2)C1 [pinometostat]
Outline: as §1

[19] = compound: CC1=C(C(CC(=O)N1)C2=CC=C(C=C2)C(F)(F)F)C(=O)NC3=C(C=C4C(=C3)C=NN4)F
Outline: as §1

[20] = compound: CC1=C(C2=C(C=C1)C(=O)C3=CC=CC=C3N2CCCN)C
Outline: as §1

Measured: log2 fold change

FUBP1 isoform 2 (UniProt Q96AE4)
inactive: [1] 0.027 | [2] -0.021 | [3] 0.004 | [4] -0.014 | [5] -0.012 | [6] 0.025 | [7] -0.022 | [8] -0.008 | [9] 0.018 | [10] 0.036 | [11] 0.027 | [12] -0.008 | [13] -0.003 | [14] -0.029 | [15] 0.004 | [16] 0.054 | [17] -0.006 | [18] -0.078 | [19] 0.008 | [20] 0.04

FOXJ3 (UniProt Q9UPW0)
inactive: [1] 0.114 | [2] 0.07 | [3] 0.003 | [4] 0.098 | [5] -0.011 | [6] 0.098 | [7] 0.101 | [8] 0.019 | [9] 0.059 | [10] 0.05 | [11] 0.059 | [12] -0.141 | [13] -0.132 | [14] -0.054 | [15] 0.003 | [16] -0.022 | [17] -0.019 | [18] -0.015 | [19] 0.012 | [20] -0.159

GFM1 (UniProt Q96RP9)
inactive: [1] 0.05 | [2] 0.122 | [3] 0.078 | [4] -0.035 | [5] 0.056 | [6] -0.047 | [7] 0.022 | [8] 0.037 | [9] -0.007 | [10] 0.019 | [11] 0.022 | [12] -0.004 | [13] -0.069 | [14] -0.075 | [15] -0.146 | [16] -0.138 | [17] 0.021 | [18] -0.049 | [19] -0.024 | [20] 0.129

FRG1 (UniProt Q14331)
inactive: [1] 0.024 | [2] -0.098 | [3] -0.266 | [4] 0.028 | [5] 0.043 | [6] 0.022 | [7] -0.053 | [8] 0.012 | [9] 0.06 | [10] 0.077 | [11] 0.034 | [12] 0.006 | [13] 0.094 | [14] 0.017 | [15] 0.054 | [16] 0.1 | [17] 0.111 | [18] 0.158 | [19] 0.029 | [20] 0.053

GDAP1 (UniProt Q8TB36)
inactive: [1] 0.069 | [2] -0.013 | [3] 0.065 | [4] -0.005 | [5] -0.065 | [6] 0.048 | [7] 0.111 | [8] 0.135 | [9] 0.003 | [10] 0.023 | [11] -0.06 | [12] -0.022 | [13] 0.02 | [14] 0.089 | [15] 0.11 | [16] 0.146 | [17] -0.147 | [18] 0.003 | [19] -0.018 | [20] 0.018

GALNT6 (UniProt Q8NCL4)
inactive: [1] 0.25 | [2] 0.041 | [3] 0.048 | [4] 0.029 | [5] 0.114 | [6] 0.064 | [7] 0.045 | [8] -0.161 | [9] -0.062 | [10] 0.135 | [11] -0.203 | [12] 0.19 | [13] -0.045 | [14] -0.142 | [15] -0.079 | [16] 0.122 | [17] 0.094 | [18] -0.084 | [19] -0.012 | [20] -0.035

GAR1 (UniProt Q9NY12)
inactive: [1] -0.093 | [2] -0.104 | [3] -0.334 | [4] 0.027 | [5] -0.056 | [6] 0.02 | [7] -0.046 | [8] -0.003 | [9] 0.022 | [10] -0.215 | [11] -0.092 | [12] 0.005 | [13] 0.028 | [14] 0.074 | [15] 0.067 | [16] 0.025 | [17] 0.161 | [18] 0.236 | [19] -0.039 | [20] -0.14

GALNT7 (UniProt Q86SF2)
inactive: [1] 0.011 | [2] 0.033 | [3] 0.075 | [4] 0.013 | [5] 0 | [6] 0.019 | [7] -0.018 | [8] 0.009 | [9] -0.032 | [10] 0.01 | [11] 0.001 | [12] 0.019 | [13] 0.036 | [14] -0.049 | [15] -0.013 | [16] -0.011 | [17] -0.029 | [18] -0.022 | [19] -0.001 | [20] -0.033

GGPS1 (UniProt O95749)
inactive: [1] -0.021 | [2] -0.021 | [3] 0.062 | [4] 0.011 | [5] 0.003 | [6] 0.039 | [7] -0.024 | [8] -0.014 | [9] 0.041 | [10] 0.031 | [11] 0.019 | [12] -0.035 | [13] -0.02 | [14] -0.074 | [15] -0.005 | [16] 0.061 | [17] -0.015 | [18] -0.046 | [19] 0.05 | [20] 0.023

GAB1 isoform 2 (UniProt Q13480)
inactive: [1] 0.207 | [2] -0.029 | [3] -0.068 | [4] 0.04 | [5] 0.05 | [6] -0.044 | [7] -0.009 | [8] -0.14 | [9] -0.075 | [10] 0.03 | [11] 0.044 | [12] -0.006 | [13] 0.02 | [14] 0.009 | [15] -0.052 | [16] 0.024 | [17] 0.065 | [18] 0.052 | [19] -0.036 | [20] 0.019

Reprinted from the listing (2 entries):
FOXJ3 (UniProt Q9UPW0)
inactive: [1] 0.114 | [2] 0.07 | [3] 0.003 | [4] 0.098 | [5] -0.011 | [6] 0.098 | [7] 0.101 | [8] 0.019 | [9] 0.059 | [10] 0.05 | [11] 0.059 | [12] -0.141 | [13] -0.132 | [14] -0.054 | [15] 0.003 | [16] -0.022 | [17] -0.019 | [18] -0.015 | [19] 0.012 | [20] -0.159

GFM1 (UniProt Q96RP9)
inactive: [1] 0.05 | [2] 0.122 | [3] 0.078 | [4] -0.035 | [5] 0.056 | [6] -0.047 | [7] 0.022 | [8] 0.037 | [9] -0.007 | [10] 0.019 | [11] 0.022 | [12] -0.004 | [13] -0.069 | [14] -0.075 | [15] -0.146 | [16] -0.138 | [17] 0.021 | [18] -0.049 | [19] -0.024 | [20] 0.129

Further entries.

GGT2 isoform 3 (UniProt P36268)
inactive: [1] -0.109 | [2] 0.004 | [3] -0.108 | [4] 0.096 | [5] -0.015 | [6] 0.033 | [7] -0.04 | [8] -0.042 | [9] -0.094 | [10] 0.007 | [11] -0.077 | [12] 0.037 | [13] 0.014 | [14] -0.046 | [15] 0.244 | [16] 0.05 | [17] -0.007 | [18] -0.03 | [19] 0.023 | [20] 0.137

GALE (UniProt Q14376)
inactive: [1] 0.049 | [2] 0.074 | [3] 0.087 | [4] 0.087 | [5] 0.03 | [6] -0.137 | [7] 0.013 | [8] 0.012 | [9] 0.013 | [10] 0.019 | [11] 0.013 | [12] 0.035 | [13] -0.102 | [14] -0.042 | [15] -0.039 | [16] 0.03 | [17] -0.039 | [18] -0.053 | [19] -0.008 | [20] 0.067

FRRS1 (UniProt Q6ZNA5)
inactive: [1] -0.034 | [2] -0.034 | [3] -0.039 | [4] 0.005 | [5] -0.056 | [6] 0.028 | [7] 0.039 | [8] 0.014 | [9] -0.068 | [10] 0.048 | [11] 0.007 | [12] 0.011 | [13] -0.049 | [14] -0.033 | [15] -0.093 | [16] 0.101 | [17] 0.006 | [18] -0.024 | [19] 0.041 | [20] -0.013

FSCN1 (UniProt Q16658)
inactive: [1] -0.014 | [2] 0.04 | [3] 0.159 | [4] -0.01 | [5] -0.058 | [6] 0.008 | [7] 0.03 | [8] 0.036 | [9] -0.037 | [10] 0.027 | [11] 0.029 | [12] -0.033 | [13] 0.007 | [14] 0.006 | [15] 0 | [16] 0.017 | [17] -0.024 | [18] -0.068 | [19] -0.018 | [20] 0.014

FUNDC2 (UniProt Q9BWH2)
inactive: [1] -0.024 | [2] -0.018 | [3] -0.001 | [4] -0.02 | [5] -0.015 | [6] 0.021 | [7] -0.015 | [8] 0.031 | [9] 0.012 | [10] 0.047 | [11] 0.03 | [12] 0.009 | [13] -0.006 | [14] -0.051 | [15] 0.085 | [16] -0.046 | [17] 0.019 | [18] -0.017 | [19] 0.03 | [20] -0.02

GART (UniProt C9JZG2)
inactive: [1] 0.25 | [2] -0.018 | [3] 0.285 | [4] -0.087 | [5] 0.289 | [6] 0.077 | [7] -0.124 | [8] 0.09 | [9] 0.032 | [10] -0.233 | [11] -0.169 | [12] -0.178 | [13] -0.065 | [14] -0.078 | [15] -0.056 | [16] -0.309 | [17] -0.128 | [18] -0.041 | [19] 0.148 | [20] -0.06
